Seven molecules from article doi:10.1101/434159 can be followed below.

The chains behind the UniProt entries cited, without tags or fusion partners.
UniProt Q3TKT4: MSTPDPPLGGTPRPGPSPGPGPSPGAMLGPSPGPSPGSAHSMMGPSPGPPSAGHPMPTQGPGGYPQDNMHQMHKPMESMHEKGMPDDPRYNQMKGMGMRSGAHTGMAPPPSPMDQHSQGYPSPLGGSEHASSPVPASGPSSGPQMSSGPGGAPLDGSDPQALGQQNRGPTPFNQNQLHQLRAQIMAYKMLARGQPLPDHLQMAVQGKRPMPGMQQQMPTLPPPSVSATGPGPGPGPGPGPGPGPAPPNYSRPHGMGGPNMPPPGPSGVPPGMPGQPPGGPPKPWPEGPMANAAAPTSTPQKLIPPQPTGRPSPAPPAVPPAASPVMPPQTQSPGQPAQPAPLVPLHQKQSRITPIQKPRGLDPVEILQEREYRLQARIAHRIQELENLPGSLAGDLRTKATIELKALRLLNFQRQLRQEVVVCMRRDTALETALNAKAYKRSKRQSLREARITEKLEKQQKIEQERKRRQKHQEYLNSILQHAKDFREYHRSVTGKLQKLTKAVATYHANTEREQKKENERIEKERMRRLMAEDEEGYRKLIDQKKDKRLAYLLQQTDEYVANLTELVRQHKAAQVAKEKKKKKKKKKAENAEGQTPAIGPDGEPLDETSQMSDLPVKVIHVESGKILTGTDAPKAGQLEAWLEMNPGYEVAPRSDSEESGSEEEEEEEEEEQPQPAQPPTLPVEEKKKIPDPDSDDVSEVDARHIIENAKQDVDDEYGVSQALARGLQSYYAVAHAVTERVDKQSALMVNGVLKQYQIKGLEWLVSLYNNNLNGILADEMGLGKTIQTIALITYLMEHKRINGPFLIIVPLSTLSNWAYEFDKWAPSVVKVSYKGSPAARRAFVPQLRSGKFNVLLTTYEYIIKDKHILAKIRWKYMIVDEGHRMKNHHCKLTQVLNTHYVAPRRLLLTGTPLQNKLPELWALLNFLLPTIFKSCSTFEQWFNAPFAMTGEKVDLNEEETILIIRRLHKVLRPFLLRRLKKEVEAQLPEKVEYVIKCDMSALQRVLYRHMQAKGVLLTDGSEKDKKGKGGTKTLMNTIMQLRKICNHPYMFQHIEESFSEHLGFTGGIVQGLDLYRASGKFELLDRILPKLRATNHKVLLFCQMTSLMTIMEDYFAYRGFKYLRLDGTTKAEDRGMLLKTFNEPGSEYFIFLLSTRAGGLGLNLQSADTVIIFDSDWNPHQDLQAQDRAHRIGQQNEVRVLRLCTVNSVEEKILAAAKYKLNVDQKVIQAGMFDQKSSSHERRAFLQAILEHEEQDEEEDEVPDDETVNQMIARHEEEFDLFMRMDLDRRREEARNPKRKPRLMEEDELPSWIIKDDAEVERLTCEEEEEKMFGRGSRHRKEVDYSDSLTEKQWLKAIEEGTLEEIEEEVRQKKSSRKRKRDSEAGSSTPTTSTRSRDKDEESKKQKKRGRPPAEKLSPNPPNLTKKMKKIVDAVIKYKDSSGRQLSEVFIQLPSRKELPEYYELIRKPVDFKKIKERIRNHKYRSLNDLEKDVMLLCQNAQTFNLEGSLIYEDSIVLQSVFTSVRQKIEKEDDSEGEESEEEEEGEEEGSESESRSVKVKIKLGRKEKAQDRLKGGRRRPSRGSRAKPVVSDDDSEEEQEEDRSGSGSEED
UniProt Q61466: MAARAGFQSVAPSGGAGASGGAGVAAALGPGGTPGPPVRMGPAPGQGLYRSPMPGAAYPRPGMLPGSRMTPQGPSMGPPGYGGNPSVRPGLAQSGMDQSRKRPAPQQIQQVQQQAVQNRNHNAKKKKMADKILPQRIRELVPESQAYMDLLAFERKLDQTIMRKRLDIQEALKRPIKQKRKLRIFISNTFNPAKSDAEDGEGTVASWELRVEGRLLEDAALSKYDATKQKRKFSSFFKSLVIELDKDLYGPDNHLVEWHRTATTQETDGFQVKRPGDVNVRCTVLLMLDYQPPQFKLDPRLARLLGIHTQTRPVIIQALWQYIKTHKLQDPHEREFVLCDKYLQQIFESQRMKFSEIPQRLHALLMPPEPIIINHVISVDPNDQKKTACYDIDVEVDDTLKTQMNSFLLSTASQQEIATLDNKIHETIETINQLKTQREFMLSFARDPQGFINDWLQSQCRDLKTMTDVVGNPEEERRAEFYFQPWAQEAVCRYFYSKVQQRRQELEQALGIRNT
UniProt Q99JR8: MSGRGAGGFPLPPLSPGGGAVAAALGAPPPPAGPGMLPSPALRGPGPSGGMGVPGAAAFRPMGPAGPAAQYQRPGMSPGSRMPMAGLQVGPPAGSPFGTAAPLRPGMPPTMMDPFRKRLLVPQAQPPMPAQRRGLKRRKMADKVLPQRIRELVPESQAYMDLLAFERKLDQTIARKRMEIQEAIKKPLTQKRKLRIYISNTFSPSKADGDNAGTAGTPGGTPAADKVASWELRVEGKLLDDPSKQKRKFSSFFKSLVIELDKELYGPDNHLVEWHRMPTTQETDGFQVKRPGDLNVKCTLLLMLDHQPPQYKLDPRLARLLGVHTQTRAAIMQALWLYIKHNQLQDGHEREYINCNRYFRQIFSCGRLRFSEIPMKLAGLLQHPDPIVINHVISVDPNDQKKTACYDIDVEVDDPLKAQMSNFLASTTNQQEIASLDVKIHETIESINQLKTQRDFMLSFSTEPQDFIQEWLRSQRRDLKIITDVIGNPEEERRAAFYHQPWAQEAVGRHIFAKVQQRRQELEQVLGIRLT
UniProt Q6P9Z1: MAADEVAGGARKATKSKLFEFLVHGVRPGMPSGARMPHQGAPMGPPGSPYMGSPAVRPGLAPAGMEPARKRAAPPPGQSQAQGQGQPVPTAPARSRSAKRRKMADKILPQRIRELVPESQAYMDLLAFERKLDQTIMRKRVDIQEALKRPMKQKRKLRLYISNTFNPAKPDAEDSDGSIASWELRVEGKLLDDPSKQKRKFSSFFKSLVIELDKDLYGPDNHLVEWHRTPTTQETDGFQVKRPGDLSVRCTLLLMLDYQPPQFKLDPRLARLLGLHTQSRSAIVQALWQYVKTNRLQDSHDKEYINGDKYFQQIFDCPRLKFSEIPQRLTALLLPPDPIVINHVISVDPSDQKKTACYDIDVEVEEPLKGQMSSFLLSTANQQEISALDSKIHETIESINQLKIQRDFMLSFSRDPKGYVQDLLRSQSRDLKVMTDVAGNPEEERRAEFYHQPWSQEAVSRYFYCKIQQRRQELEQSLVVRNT
UniProt P97496: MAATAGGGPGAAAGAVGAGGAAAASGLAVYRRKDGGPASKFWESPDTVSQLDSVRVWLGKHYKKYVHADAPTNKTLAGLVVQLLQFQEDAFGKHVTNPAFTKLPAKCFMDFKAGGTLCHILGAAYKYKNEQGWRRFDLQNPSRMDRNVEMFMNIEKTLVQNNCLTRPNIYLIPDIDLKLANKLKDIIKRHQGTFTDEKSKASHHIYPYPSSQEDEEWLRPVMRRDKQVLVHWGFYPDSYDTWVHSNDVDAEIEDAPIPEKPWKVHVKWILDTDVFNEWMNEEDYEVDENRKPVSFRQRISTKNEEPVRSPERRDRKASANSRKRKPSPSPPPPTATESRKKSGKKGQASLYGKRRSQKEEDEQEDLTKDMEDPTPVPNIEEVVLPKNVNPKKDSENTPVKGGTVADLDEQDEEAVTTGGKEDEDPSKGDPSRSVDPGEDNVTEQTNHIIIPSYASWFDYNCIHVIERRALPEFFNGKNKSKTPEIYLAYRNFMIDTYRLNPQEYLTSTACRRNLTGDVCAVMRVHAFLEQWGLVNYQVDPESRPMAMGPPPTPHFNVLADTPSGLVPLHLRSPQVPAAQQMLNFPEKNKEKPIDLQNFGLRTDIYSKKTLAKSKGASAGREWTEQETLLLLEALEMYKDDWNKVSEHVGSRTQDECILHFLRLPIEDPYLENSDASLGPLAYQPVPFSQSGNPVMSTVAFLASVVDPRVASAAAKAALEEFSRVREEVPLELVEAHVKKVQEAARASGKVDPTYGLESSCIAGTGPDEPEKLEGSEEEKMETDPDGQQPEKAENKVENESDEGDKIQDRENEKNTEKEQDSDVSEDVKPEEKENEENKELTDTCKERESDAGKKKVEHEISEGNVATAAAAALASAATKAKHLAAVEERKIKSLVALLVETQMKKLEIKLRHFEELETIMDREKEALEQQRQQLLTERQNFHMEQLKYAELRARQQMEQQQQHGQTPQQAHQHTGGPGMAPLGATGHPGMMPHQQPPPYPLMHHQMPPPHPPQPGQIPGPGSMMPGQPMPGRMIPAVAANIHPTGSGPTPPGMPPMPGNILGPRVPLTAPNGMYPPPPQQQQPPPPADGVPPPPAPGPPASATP
UniProt P48432: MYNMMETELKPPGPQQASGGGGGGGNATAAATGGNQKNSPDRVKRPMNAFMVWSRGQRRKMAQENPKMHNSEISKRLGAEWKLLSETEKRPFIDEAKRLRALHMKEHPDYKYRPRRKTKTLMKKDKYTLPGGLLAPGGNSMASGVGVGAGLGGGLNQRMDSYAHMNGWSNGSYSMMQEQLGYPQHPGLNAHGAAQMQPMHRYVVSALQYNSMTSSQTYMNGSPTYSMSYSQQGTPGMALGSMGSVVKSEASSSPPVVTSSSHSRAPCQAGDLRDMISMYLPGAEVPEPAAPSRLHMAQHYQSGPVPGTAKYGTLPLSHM

Common to all, as to experiment: co-IP
Assay [1] concerns the target T1, Six1 (mouse (endogenous in embryonic cochlea)) (UniProt Q62231).
T1 sequence: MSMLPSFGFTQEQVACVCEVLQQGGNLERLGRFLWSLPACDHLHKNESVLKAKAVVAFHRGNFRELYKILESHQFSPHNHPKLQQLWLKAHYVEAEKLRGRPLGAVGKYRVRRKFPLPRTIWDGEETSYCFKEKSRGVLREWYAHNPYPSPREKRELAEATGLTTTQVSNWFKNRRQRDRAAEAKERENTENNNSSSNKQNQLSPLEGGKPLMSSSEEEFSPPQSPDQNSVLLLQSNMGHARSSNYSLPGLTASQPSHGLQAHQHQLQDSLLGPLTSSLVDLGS

Assay [2] addresses Brg1 (mouse (endogenous in embryonic cochlea)) (UniProt Q3TKT4).
Assay [3] addresses T2, 2×HA-3×Flag-Eya1 (knock-in mouse line) (mouse (knock-in mouse line)) (UniProt P97767).
T2 sequence: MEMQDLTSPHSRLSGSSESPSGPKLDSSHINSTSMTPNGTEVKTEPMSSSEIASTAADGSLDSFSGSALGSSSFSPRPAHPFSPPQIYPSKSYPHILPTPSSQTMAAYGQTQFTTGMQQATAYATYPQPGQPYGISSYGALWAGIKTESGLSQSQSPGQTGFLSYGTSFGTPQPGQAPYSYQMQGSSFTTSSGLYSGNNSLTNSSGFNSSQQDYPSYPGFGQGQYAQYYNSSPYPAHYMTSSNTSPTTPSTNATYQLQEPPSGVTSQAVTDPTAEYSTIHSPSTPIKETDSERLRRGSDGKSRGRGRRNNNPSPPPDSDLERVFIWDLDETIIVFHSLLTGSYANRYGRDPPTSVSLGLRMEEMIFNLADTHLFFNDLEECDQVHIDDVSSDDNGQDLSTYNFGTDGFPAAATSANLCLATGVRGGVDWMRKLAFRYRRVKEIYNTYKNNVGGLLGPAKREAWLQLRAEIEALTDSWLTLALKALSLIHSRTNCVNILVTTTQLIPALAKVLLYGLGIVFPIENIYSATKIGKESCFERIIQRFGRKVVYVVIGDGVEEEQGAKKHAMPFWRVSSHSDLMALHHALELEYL

These are yes or no findings as the source states them, for the method shown. In cells and extracts the contact can be indirect. Some binding calls cover weakened binding; strength is not graded here. For part of these data: Sequences can lack the tags named with a protein.

Consider BAF60a (from UniProt Q61466 1-515), for which the binding result in assay [1], in assay [2] and in assay [3] was “binds” throughout.

As to BAF60b (from UniProt Q99JR8 1-531), the results for the binding entry in assay [1], in assay [2] and in assay [3] were “no binding”, “binds” and “no binding”, respectively.

Regarding BAF60c (from UniProt Q6P9Z1 1-483), the binding entry in assay [1], in assay [2] and in assay [3] was “binds” each time.

With BAF155 (from UniProt P97496 1-1104), the binding entry in assay [2] and in assay [3] was “binds” each time.

As for Brg1 (from UniProt Q3TKT4 1-1613), the binding entry in assay [1] and in assay [3] was “binds” each time.

Turning to Sox2 (from UniProt P48432 1-319), the binding entry in assay [2] is “binds”.

B1: Six1 (protein, UniProt Q62231 1-284)
chain: T1 sequence
For the molecule B1, the binding entry in assay [3] is given as “binds”.
